{"source": "paper PMC7819943", "about": "“Rice protein-binding microarrays: a tool to detect cis-acting elements near promoter regions in rice”", "note": "Some of the results follow.", "data": [{"target": "T1, OsSMF1 (Oryza sativa, UniProt Q6ZLB0 1-436)", "T1 sequence": "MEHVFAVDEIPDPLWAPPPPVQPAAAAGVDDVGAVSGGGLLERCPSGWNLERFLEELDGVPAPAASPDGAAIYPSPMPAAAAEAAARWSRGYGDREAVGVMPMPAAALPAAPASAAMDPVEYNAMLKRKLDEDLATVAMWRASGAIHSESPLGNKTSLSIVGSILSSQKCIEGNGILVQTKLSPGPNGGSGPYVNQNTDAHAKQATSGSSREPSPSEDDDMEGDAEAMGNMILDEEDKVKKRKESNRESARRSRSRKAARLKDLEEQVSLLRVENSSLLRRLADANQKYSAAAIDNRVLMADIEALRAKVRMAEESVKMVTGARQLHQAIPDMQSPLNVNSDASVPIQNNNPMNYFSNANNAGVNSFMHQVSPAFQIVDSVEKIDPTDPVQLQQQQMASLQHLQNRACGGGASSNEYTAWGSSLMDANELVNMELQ", "experiment": "protein-binding microarray (RPBM); PBS, 2% BSA, 51.3 ng/ul salmon testes DNA, 50 uM zinc acetate, 200 nM TF, 25 C, 1 h; high values mean tight binding", "conditions": "protein: recombinant; tags: N-terminal polyhistidine and DsRed monomer fusion (pET32a); chain copies: 2; label: CyDye5-dUTP incorporated in the synthesized complementary strand; 3' TTTTT single-stranded linker to array surface; dsDNA, one strand shown", "method_in_brief": "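Ni–NTA purification followed expression in E. coli BL21-CodonPlus of transcription factors fused N-terminally to a polyhistidine tag and DsRed. At 200 nM in PBS with 2% BSA, salmon testes DNA and 50 µM zinc acetate, the protein was incubated for 1 h at 25 °C with a custom Agilent array that had been primer-extended with Cy5-dUTP and blocked with 2% BSA. After washing, the array was read on an Axon 4000B scanner. The binding signal is per-feature fluorescence intensity in arbitrary units.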", "values": [{"sequence": "GCGTGCCGTGCCGTGCCGGCCCGCTACAGTAGCCGTGCCGCGGAGTCACCTAGTGCAG", "binding signal": "3290 fluorescence intensity (a.u.)"}, {"sequence": "CTCTAGCCGACGTTCACATCAGCAAGCATGCCGGAACTATCGGAGTCACCTAGTGCAG", "binding signal": "3260 fluorescence intensity (a.u.)"}, {"sequence": "AACTAGGCTCTCACGTCAAGTCACAGGACGCCGGGCGCAACGGAGTCACCTAGTGCAG", "binding signal": "3320 fluorescence intensity (a.u.)"}, {"sequence": "AGATCAAACTATAGTCATCGATTAGTAGATACCAACGGTGCGGAGTCACCTAGTGCAG", "binding signal": "3450 fluorescence intensity (a.u.)"}, {"sequence": "ACGGAGGTATGTACGTCGTGAAACGTCAAGCGTCCTCGCGCGGAGTCACCTAGTGCAG", "binding signal": "3580 fluorescence intensity (a.u.)"}, {"sequence": "GAAAGACAGATGTCGGCATGAATATCAACACGTACGCATGCGGAGTCACCTAGTGCAG", "binding signal": "5270 fluorescence intensity (a.u.)"}, {"sequence": "CATGTGTGCAGTGTTCATTGTGTTGGAATAGTTGTAGCAGCGGAGTCACCTAGTGCAG", "binding signal": "21500 fluorescence intensity (a.u.)"}, {"sequence": "ATTTTCACGTGGAAATCGATTAATTGCCGGTTGAGTGTTTCGGAGTCACCTAGTGCAG", "binding signal": "3270 fluorescence intensity (a.u.)"}, {"sequence": "ACCCATCCAAACACCCATCCGCCGCCGCTGGCTGAACTCGCGGAGTCACCTAGTGCAG", "binding signal": "3150 fluorescence intensity (a.u.)"}, {"sequence": "AACCAATCACTCGATATATGACTAATTCTTCTGGAGTTGTCGGAGTCACCTAGTGCAG", "binding signal": "3370 fluorescence intensity (a.u.)"}, {"sequence": "TAATCCTGTGTCCGTCATTGAGCATGTGTGTATGAATCAACGGAGTCACCTAGTGCAG", "binding signal": "3450 fluorescence intensity (a.u.)"}, {"sequence": "TCTTCCGCCGCACTTTTAGATCATCACACATCACCGAGATCGGAGTCACCTAGTGCAG", "binding signal": "4130 fluorescence intensity (a.u.)"}, {"sequence": "CGAGTAACTTCTTTTGGATGATGACTCTGAAAATTTTGAGCGGAGTCACCTAGTGCAG", "binding signal": "4680 fluorescence intensity (a.u.)"}, {"sequence": "ATCAGCAACAATCAGGCTCCTGTGCGGTAAGTCCAACATTCGGAGTCACCTAGTGCAG", "binding signal": "6700 fluorescence intensity (a.u.)"}, {"sequence": "GTCTTAATGGGAGAAAGTTACAAGTTGACACGTTAGAAGACGGAGTCACCTAGTGCAG", "binding signal": "3540 fluorescence intensity (a.u.)"}, {"sequence": "GGACCCTTAAACTGGTTTACCACGTATCGTAAAGATGCTACGGAGTCACCTAGTGCAG", "binding signal": "3910 fluorescence intensity (a.u.)"}, {"sequence": "TTGCATCTAGCCACGTCGTCATACACGGGTAGCAGTAGCACGGAGTCACCTAGTGCAG", "binding signal": "8530 fluorescence intensity (a.u.)"}, {"sequence": "GTTTAGACAGCTCCACAACTCCACTCCAGACTCAACTCCTCGGAGTCACCTAGTGCAG", "binding signal": "26700 fluorescence intensity (a.u.)"}, {"sequence": "CACCAGCCTCCAGCTATTGCTATCCAGTCCCGCTCCGCTACGGAGTCACCTAGTGCAG", "binding signal": "3290 fluorescence intensity (a.u.)"}, {"sequence": "GTGTGTGGTATATGCGCACCCTCTAATCCACTTGTTGCTTCGGAGTCACCTAGTGCAG", "binding signal": "4110 fluorescence intensity (a.u.)"}, {"sequence": "CACGCCGCCGGCCGACGCCACCAGCAACTGGCTGTGGCAGCGGAGTCACCTAGTGCAG", "binding signal": "3190 fluorescence intensity (a.u.)"}, {"sequence": "AGCCGACGAGACGGGTGGTGGGGCGGTGGCGGCCGAGGATCGGAGTCACCTAGTGCAG", "binding signal": "4420 fluorescence intensity (a.u.)"}, {"sequence": "CCAACTTTTCCATCACATCGTTCCAATTTCAACCAAACTTCGGAGTCACCTAGTGCAG", "binding signal": "21900 fluorescence intensity (a.u.)"}, {"sequence": "CTTGGGGATTTAGTGCTCTATGATGCAGATGGAACACTTGCGGAGTCACCTAGTGCAG", "binding signal": "3190 fluorescence intensity (a.u.)"}, {"sequence": "TTTAAGAAGGGAGATAATTATAGGGGTGGCGTGTGCACTTCGGAGTCACCTAGTGCAG", "binding signal": "3420 fluorescence intensity (a.u.)"}, {"sequence": "TTATTATATATGCGCATGTGAATTAAAATGACTGGGCTGCCGGAGTCACCTAGTGCAG", "binding signal": "4960 fluorescence intensity (a.u.)"}, {"sequence": "CTCTCCCGCCGCTGGCGCCACCTCTGGGCCTCCGCGCCCTCGGAGTCACCTAGTGCAG", "binding signal": "3820 fluorescence intensity (a.u.)"}, {"sequence": "GGTCACGCAAAGCCAAAGCATCTCCCTGTCACGTACCCGTCGGAGTCACCTAGTGCAG", "binding signal": "3790 fluorescence intensity (a.u.)"}, {"sequence": "GTGGAGCAGGCGGACGTGTCGGGGTCGAAGAGCGCCGGGACGGAGTCACCTAGTGCAG", "binding signal": "4870 fluorescence intensity (a.u.)"}, {"sequence": "AGGAAACGTGTGTTCCGTTCGCCGCGTCCGGAGCCCGCGGCGGAGTCACCTAGTGCAG", "binding signal": "3330 fluorescence intensity (a.u.)"}, {"sequence": "AACACAACCCAACCAATCGTTTACCGCCACGTGCACGCCACGGAGTCACCTAGTGCAG", "binding signal": "4920 fluorescence intensity (a.u.)"}, {"sequence": "GGTTCTTAGTTTGCTGCGTTTATAGCAAACGTGTACACGGCGGAGTCACCTAGTGCAG", "binding signal": "4430 fluorescence intensity (a.u.)"}, {"sequence": "AGTAGTTTGGTGTATTAGTGATGGTTAACTGCTCTGATCTCGGAGTCACCTAGTGCAG", "binding signal": "3260 fluorescence intensity (a.u.)"}, {"sequence": "CAATCATAATATATTAGCTGGCAGGTTCAAATGGGATTTTCGGAGTCACCTAGTGCAG", "binding signal": "3160 fluorescence intensity (a.u.)"}, {"sequence": "TATTGGAACTTTAGTGACCGTTGCGTAGACTCATATAAGACGGAGTCACCTAGTGCAG", "binding signal": "3470 fluorescence intensity (a.u.)"}, {"sequence": "GCATTGGCAGGAATAATTTGGTACTGTAGTATGGTCCATCCGGAGTCACCTAGTGCAG", "binding signal": "22500 fluorescence intensity (a.u.)"}, {"sequence": "GCCGCGCGGCGGAGGCGGAAGCGAGCGTCACGTTGCCCACCGGAGTCACCTAGTGCAG", "binding signal": "3510 fluorescence intensity (a.u.)"}, {"sequence": "TCCATCCCCGCGTGGATTTGACCGGGCGGCGTGGATTCGGCGGAGTCACCTAGTGCAG", "binding signal": "3320 fluorescence intensity (a.u.)"}, {"sequence": "CATGTTCGAAGAGACCAGCCCACATATTAGTTACGGCCTACGGAGTCACCTAGTGCAG", "binding signal": "20400 fluorescence intensity (a.u.)"}, {"sequence": "CATAATTTTCGTGTTTGTCCAACATGACATCATTTTCTTGCGGAGTCACCTAGTGCAG", "binding signal": "3870 fluorescence intensity (a.u.)"}, {"sequence": "GAGTAGTGTACACGCCGGCACGCGCAGCTTGCATTGCAGCCGGAGTCACCTAGTGCAG", "binding signal": "3350 fluorescence intensity (a.u.)"}, {"sequence": "CAGCAATCTCGGGCGGCGGCGGCGGCGAGGAGGAGGAAGTCGGAGTCACCTAGTGCAG", "binding signal": "34000 fluorescence intensity (a.u.)"}]}]}
